Results as given in US12429423B2, “L-2-hydroxyglutarate biosensor based on specific transcriptional regulator and application thereof” (SHANDONG UNIVERSITY, priority 2020, dated 2025).
For at least one compound, name, drawing or mass did not settle the structure.

Legend:
[1] = tested on: LhgR binding to the lhgO promoter (F1); assay: Electrophoretic mobility shift assays (EMSAs) to analyze the effectors of LhgR; parameters: species or system Pseudomonas putida W619; conditions: 50 mM compound, 60 nM purified LhgR, 10 nM F1 fragment, 30° C.
Source text: The above transcriptional regulator that specifically responds to L-2-hydroxyglutarate (L-2-HG) was obtained in the following way: • (1) analysis of the distribution of lhgO, the gene encoding a key enzyme for L-2-HG catabolism, in the genomes of different strains. A gene encoding a GntR family transcriptional regulator, lhgR, was found directly upstream of lhgO in the genome of Pseudomonas putida W619. lhgR gene was synthesized and cloned into pETDuet-1 vector, and the recombinant plasmid pETDuet-lhgR was introduced into an expression strain Escherichia coli BL21 (DE3), and then LhgR protein was obtained by induction of expression, isolation, and purification; • (2) electrophoretic mobility shift assays were performed to verify and determine the function of the above transcriptional regulator LhgR in Pseudomonas putida W619. Purified LhgR was incubated with different compounds (L-lysine, 5-aminovalerate, glutarate, D-2-HG, 2-ketoglutarate, and succinate), respectively, then the promoter fragment of lhgO was added. The effect on the binding ability of LhgR to the lhgO promoter fragment in the presence of different compounds was analyzed by electrophoretic separation, staining, and imaging.
Using the recombinant plasmid pETDuet-F2-lhgR-F1-lhgO as a template, the promoter region of lhgO (F1) was amplified by PCR using the synthetic primers. […]

[2] = biological target: LHGFR0N3C, fusion protein mTFP - LhgR (Pseudomonas putida W619) truncated by three amino acids at the C-terminus - Venus, nucleotide SEQ ID NO. 3; assay: Dose-response of purified L-2-HG biosensor LHGFR0N3C (FRET emission ratio); type: binding; conditions: 1 μM biosensor mixed 3:1 with L-2-HG, 50 mM Tris-HCl pH 7.4
[3] = tested on: LHGFR0N0C, fusion protein mTFP - full-length LhgR (Pseudomonas putida W619) - Venus, nucleotide SEQ ID NO. 2; assay: Dose-response of purified L-2-HG biosensor LHGFR0N0C (FRET emission ratio); type: binding; conditions: 1 μM biosensor mixed 3:1 with L-2-HG, 50 mM Tris-HCl pH 7.4; excitation 430 nm, emission 528/485 nm
[4] = biological target: LHGFR0N7C, fusion protein mTFP - LhgR (Pseudomonas putida W619) truncated by seven amino acids at the C-terminus - Venus, nucleotide SEQ ID NO. 4; assay: Dose-response of purified L-2-HG biosensor LHGFR0N7C (FRET emission ratio); type: binding; conditions: 1 μM biosensor mixed 3:1 with L-2-HG, 50 mM Tris-HCl pH 7.4
[5] = FRET emission ratio 528/485 nm, read-out: apparent dissociation constant (Kd) for L-2-HG
[6] = excitation 430 nm, emission 528/485 nm

| SMILES | effect on the binding of LhgR to the lhgO promoter fragment (EMSA) [1] | Kd [2, 5] | maximum fluorescence ratio change (ΔRmax) for L-2-HG [2, 6] | maximum fluorescence ratio change (ΔRmax) for L-2-HG [3] | Kd [4, 5] | maximum fluorescence ratio change (ΔRmax) for L-2-HG [4, 6] |
| --- | --- | --- | --- | --- | --- | --- |
| O=C(O)CCCC(=O)O [glutarate] | could not interfere with the binding of LhgR to DNA fragments |  |  |  |  |  |
| O=C(O)CC[C@H](O)C(=O)O [L-2-HG, L-2-Hydroxyglutarate] |  | 29.3 ± 1.24 µM | 56.13±0.29% | 11.47±0.38% | 7.22 ± 0.38 µM | 60.37±1.30% |
